The target in this test is Squirrel monkey C5aR1 (squirrel monkey). The experiment in a line: cell surface binding, flow cytometry, half-log titration 10^-7.5 to 10^-12 M.

These are yes or no findings as the source states them, for the method shown. Binding calls can cover weak binding; strength is not graded here.

The source of these data is US20250171555A1.

B1: e1711 (antibody, human IgG4 S228P, kappa, V domains shown)
VH: EVQLVESGGGLIQPGGSLRLSCAASGFTFNAYAMSWVRQAPGKGLEWVSSISTGGNTYYADSVKGRFTISRDNSKNTLYLQMNSLRAEDTAVYYCTRGYQRFSGFAYWGQGTLVTVSS
VL: EIVLTQSPATLSLSPGERATLSCRSSQSLVHSNGNTYLNWYQQKPGQAPRLLIYKVSNRLSGIPARFSGSGSGTDFTLTISSLEPEDFAVYYCSQSTHVPYTFGQGTKLEIKR
As for B1, the binding entry is “binds”.
